Test results from PMC9950529.
Results are given in words; binding and its absence hold for the method and conditions named. For some assays here: In cells and extracts the contact can be indirect. Blank lines part the entries; values can stand above or below the binder they belong to.

What was measured:
[1] = target: CRY1 (mouse (endogenous in mouse liver)) (UniProt P97784); assay: co-sedimentation; as the glycerol gradient, extract of ZT6, when PER is undetected
[2] = target: CRY1 (mouse (endogenous in mouse liver)) (UniProt P97784); assay: SEC; as the gel filtration, extract of ZT6, in the apparent absence of detectable PER
[3] = target: CK1δ (mouse (endogenous in mouse liver)), Q9DC28; assay: co-sedimentation; as the glycerol gradient, extract of ZT6, when PER is undetected; conditions: remark: other sources report otherwise
[4] = target: CK1δ (mouse (endogenous in mouse liver)) (UniProt Q9DC28); assay: co-sedimentation; 10-30% glycerol gradient (25 mM Tris pH 8.0, 100 mM NaCl, 2 mM DTT), SW60 54,000 rpm, 6 h, 4 °C; mouse liver nuclear extracts of ZT0, ZT2, ZT6, ZT12, ZT16, ZT19 mixed with reference proteins; fractions analysed by Western blot
[5] = target: CK1δ (mouse (endogenous in mouse liver)) (UniProt Q9DC28); assay: SEC; Superose 6 Increase 10/300 GL, room temperature, 10 mM Hepes pH 7.9, 200 mM KCl, 1.5 mM MgCl2, 0.1 mM EGTA, 0.1 mM EDTA, 20% glycerol; mouse liver nuclear extracts of ZT0, ZT2, ZT6, ZT12, ZT16, ZT19 after ultracentrifugation; fractions analysed by Western blot

binding [1]: no binding | binding [2]: no binding
B1: CRY1 (protein, UniProt P97784 1-606)
chain: MGVNAVHWFRKGLRLHDNPALKECIQGADTIRCVYILDPWFAGSSNVGINRWRFLLQCLEDLDANLRKLNSRLFVIRGQPADVFPRLFKEWNITKLSIEYDSEPFGKERDAAIKKLATEAGVEVIVRISHTLYDLDKIIELNGGQPPLTYKRFQTLVSKMEPLEMPADTITSDVIGKCMTPLSDDHDEKYGVPSLEELGFDTDGLSSAVWPGGETEALTRLERHLERKAWVANFERPRMNANSLLASPTGLSPYLRFGCLSCRLFYFKLTDLYKKVKKNSSPPLSLYGQLLWREFFYTAATNNPRFDKMEGNPICVQIPWDKNPEALAKWAEGRTGFPWIDAIMTQLRQEGWIHHLARHAVACFLTRGDLWISWEEGMKVFEELLLDADWSINAGSWMWLSCSSFFQQFFHCYCPVGFGRRTDPNGDYIRRYLPVLRGFPAKYIYDPWNAPEGIQKVAKCLIGVNYPKPMVNHAEASRLNIERMKQIYQQLSRYRGLGLLASVPSNSNGNGGLMGYAPGENVPSCSSSGNGGLMGYAPGENVPSCSGGNCSQGSGILHYAHGDSQQTHSLKQGRSSAGTGLSSGKRPSQEEDAQSVGPKVQRQSSN

binding [3]: no binding
B2: CK1δ, Q9DC28 1-415 (enzyme)
chain: MELRVGNRYRLGRKIGSGSFGDIYLGTDIAAGEEVAIKLECVKTKHPQLHIESKIYKMMQGGVGIPTIRWCGAEGDYNVMVMELLGPSLEDLFNFCSRKFSLKTVLLLADQMISRIEYIHSKNFIHRDVKPDNFLMGLGKKGNLVYIIDFGLAKKYRDARTHQHIPYRENKNLTGTARYASINTHLGIEQSRRDDLESLGYVLMYFNLGSLPWQGLKAATKRQKYERISEKKMSTPIEVLCKGYPSEFATYLNFCRSLRFDDKPDYSYLRQLFRNLFHRQGFSYDYVFDWNMLKFGASRAADDAERERRDREERLRHSRNPATRGLPSTASGRLRGTQEVAPPTPLTPTSHTANTSPRPVSGMERERKVSMRLHRGAPVNVSSSDLTGRQDTSRMSTSQIPGRVASSGLQSVVHR

binding [4]: no binding | binding [5]: no binding
B3: CLOCK (protein, UniProt O08785 1-855)
chain: MVFTVSCSKMSSIVDRDDSSIFDGLVEEDDKDKAKRVSRNKSEKKRRDQFNVLIKELGSMLPGNARKMDKSTVLQKSIDFLRKHKETTAQSDASEIRQDWKPTFLSNEEFTQLMLEALDGFFLAIMTDGSIIYVSESVTSLLEHLPSDLVDQSIFNFIPEGEHSEVYKILSTHLLESDSLTPEYLKSKNQLEFCCHMLRGTIDPKEPSTYEYVRFIGNFKSLTSVSTSTHNGFEGTIQRTHRPSYEDRVCFVATVRLATPQFIKEMCTVEEPNEEFTSRHSLEWKFLFLDHRAPPIIGYLPFEVLGTSGYDYYHVDDLENLAKCHEHLMQYGKGKSCYYRFLTKGQQWIWLQTHYYITYHQWNSRPEFIVCTHTVVSYAEVRAERRRELGIEESLPETAADKSQDSGSDNRINTVSLKEALERFDHSPTPSASSRSSRKSSHTAVSDPSSTPTKIPTDTSTPPRQHLPAHEKMTQRRSSFSSQSINSQSVGPSLTQPAMSQAANLPIPQGMSQFQFSAQLGAMQHLKDQLEQRTRMIEANIHRQQEELRKIQEQLQMVHGQGLQMFLQQSNPGLNFGSVQLSSGNSNIQQLTPVNMQGQVVPANQVQSGHISTGQHMIQQQTLQSTSTQQSQQSVMSGHSQQTSLPSQTPSTLTAPLYNTMVISQPAAGSMVQIPSSMPQNSTQSATVTTFTQDRQIRFSQGQQLVTKLVTAPVACGAVMVPSTMLMGQVVTAYPTFATQQQQAQTLSVTQQQQQQQQQPPQQQQQQQQSSQEQQLPSVQQPAQAQLGQPPQQFLQTSRLLHGNPSTQLILSAAFPLQQSTFPPSHHQQHQPQQQQQLPRHRTDSLTDPSKVQPQ
